Tests used:
[1] = system: Arabidopsis comt mutant inflorescence stems (expressing ChLAC8 or GUS); assay: Feeding Arabidopsis stems with 13C6-caffeyl alcohol, lignin analysis by thioacidolysis; type: in vivo, Arabidopsis thaliana
[2] = system: M. truncatula comt mutant hairy root cultures (expressing ChLAC8 or GUS); assay: Feeding Medicago hairy roots with 13C6-caffeyl and coniferyl alcohols, lignin analysis by thioacidolysis; type: cell-based, Medicago truncatula; conditions: 100 μM, 2 days
[3] = ChLAC8-expressing comt lines, cut stems, 100 μM, 2 days

Row | Substance | C-units as share of total lignin thioacidolysis yield [1, 3] | incorporation of labeled C-units (label incorporation into C-lignin) [1, 3] | incorporation of labeled C-units (label incorporation into C-lignin) ([1]; ChLAC8-expressing comt lines, cut stems, 100 μM, 2 days, listed as 13C-caffeyl alcohol) | C-units after feeding ([1]; GUS control lines (comt mutant), 100 μM, 2 days) | incorporation of 13C into C-lignin ([1]; comt mutant without ChLAC8) | % of C units after feeding ([2]; both ChLAC8-expressing and GUS control lines) | proportion of G units or percentage of labeled G units after feeding ([2]; ChLAC8-expressing roots)
1 | ^13C6-caffeyl alcohol | 5-9% | 34-42% | over 40% | no C-units were detected | no incorporation | increased | 
2 | ^13C6-coniferyl alcohol [^13C-coniferyl alcohol] |  |  |  |  |  |  | did not increase
